Reference: PubChem BioAssay AID504793 (Drosophila RNAi Screening Center, 2011)
The screen tested about 23,000 reagents; shown is an unselected part of those that have a named target and a result. Of all reagents, 62 (0.27%) were called active. 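Calls come from follow-up tests whose scores are not deposited, so confirmed genes may have low counts here; counts are not normalised per plate.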 Raw values are not corrected between plates. Unmarked entries are inactive. A plus sign joins genes that one reagent is predicted to hit. No sequences are given here.

- Screen: 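Genes required for cells to halt at G2/M after double-strand DNA breaks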 (primary screen)
- Cells: Drosophila S2R+ cells
- Reagents: long dsRNA against Drosophila genes, about 0.25 µg dsRNA per well
- Time to read-out: 4 days of dsRNA, then 4 hours of drug before read-out
- Conditions: doxorubicin 0.5 µM for 4 hours to cause double-strand breaks, in cells also given a low, harmless dose of dsRNA against nbs to sensitise the assay
- Measurement: 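Per-well count of mitotic cells stained for phospho-histone H3 after doxorubicin exposure, used as mitotic index; counts are raw and not normalised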
- Scale: mitotic cells: higher = more cells in mitosis, weaker G2 arrest
- Active means: 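a call needs confirmation in secondary tests, with other dsRNAs and a check of mitotic timing without damage, not just a high primary count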
- Calls: active = confirmed in follow-up tests; inactive = not confirmed

gene knocked down,dsRNA,"mitotic cells, replicate 1"
CG9372,DRSC11068,6
CG30022,DRSC22405,8
CG32568,DRSC19913,11
CG18536,DRSC06763,2
HtrA2,DRSC16425,8
HtrA2,DRSC28553,4
CG14598,DRSC12541,4
CG14598,DRSC30074,2
CG4743,DRSC15636,9
dsf,DRSC03524,12
dsf,DRSC23510,11
eIF4E4,DRSC09701,5
larp,DRSC14728,16
larp,DRSC16984,9
larp,DRSC21856,12
larp,DRSC24427,5
larp,DRSC28325,6
CG18190,DRSC06714,7
CG18190,DRSC27920,7
CG7142,DRSC16204,11
CG7142,DRSC26968,7
mRpL12,DRSC10467,5
mRpL12,DRSC28525,1
CG8526,DRSC16438,5
CG8526,DRSC26422,6
CG45263,DRSC14360,3
CG45263,DRSC14361,7
CG45263,DRSC14363,4
CG31195,DRSC13440,14
CG9286,DRSC16467,5
CG9286,DRSC28102,3
Ir94g,DRSC15231,9
Ir94g,DRSC27794,6
Cyp4d2,DRSC18458,4
Ggamma30A + borr,DRSC24954,4
ndl,DRSC11374,6
ndl,DRSC26902,4
CG2336,DRSC12581,12
CG9812,DRSC04566,8
Sps2,DRSC03441,3
Ugt303B1,DRSC15141,6
emc,DRSC23238,11
emc,DRSC28439,3
CG12608,DRSC19472,2
CG12766,DRSC08295,5

Reformatted: results already given.
gene knocked down | dsRNA | mitotic cells, replicate 1
mRpL12 | DRSC10467 | 5
mRpL12 | DRSC28525 | 1
CG8526 | DRSC16438 | 5
CG8526 | DRSC26422 | 6
